Consider 14 compounds from patent US20040014721A1, “Method for using tethered bis(polyhydroxyphenyls) and O-alkyl derivatives thereof in treating inflammatory conditions of the central nervous system” (Oklahoma Medical Research Foundation, priority 2002, published 2004).

The data set has as its system EOC-20 cells. To be noted: Table III; ratio of MTT LD50 to nitrite IC50. As for the experimental part: Lower IC50 values indicate improved efficacy. FIG. 2 illustrates the principle of the measurement using NDGA as an example test agent. In order to determine viability, cell culture medium was replaced with phenol-free DMEM (Gibco) containing 20 μL/mL of MTT viability reagent (Promega). […] Control cells were taken to indicate 100% viability and intermediate values of MTT reduction were scaled to percentage of control. For each compound, an LD50 value was determined by extrapolation through sublethal concentrations. This value represents the concentration that reduced the MTT viability parameter by 50%.

With `O=c1cc(-c2ccccc2)oc2ccccc12` [Flavone], the LD50/IC50 stood at 1.27.
Next, `O=C(/C=C/c1ccc(O)c(O)c1)c1ccc(O)cc1O` [butein (2′,4′,3,4-tetrahydroxychalcone), 2′,4′,3,4-tetrahydroxychalcone]: 15.10.
Next, `COc1ccc2c(c1)c(CC(=O)O)c(C)n2C(=O)c1ccc(Cl)cc1` [Indomethacin]: 2.03; `N#CC(C#N)=Cc1ccc([N+](=O)[O-])c(O)c1` [Tyrphostin AG126]: 8.33; `O=c1cc(-c2ccccc2)oc2cc(O)cc(O)c12` [Chrysin, 5,7-dihydroxy-flavone]: 1.35.
The same measure for “7-Bis (4-hydroxy-3-methoxyphenyl)-1,6-heptadiene-3,5-dione [Curcumin]”: 17.14.
Regarding `O=c1c(O)c(-c2ccc(O)cc2)oc2cc(O)cc(O)c12` [Kaempherol, 3,4′,5,7-tetrahydroxy-flavone], the LD50/IC50 is 1.49.
Take `O=c1cc(-c2ccccc2)oc2cc(O)ccc12` [7-OH-flavone, 7-OH-flavone]: the LD50/IC50 is 1.92.
Next, `COc1ccc(-c2coc3cc(O)cc(O)c3c2=O)cc1` [4′-methoxy-5,7-dihydroxyisoflavone]: 2.29; `O=c1c(O)c(-c2ccccc2)oc2cc(O)cc(O)c12` [3,5,7-trihydroxy-flavone (galangin), 3,5,7-trihydroxy-flavone]: 1.41; `O=c1c(O)c(-c2ccccc2)oc2ccccc12` [3-OH-flavone]: 1.79.
Regarding `S=C(S)N1CCCC1` [pyrollidine dithiocarbamate (PDTC), pyrollidine dithiocarbamate], the LD50/IC50 is reported as 1.76.
For the compound `O=c1cc(-c2ccc(O)cc2)oc2cc(O)cc(O)c12` [4′,5,7-trihydroxy-flavone (apigenin), 4′,5,7-trihydroxy-flavone], the LD50/IC50 is recorded as 1.58.
Next, `O=c1cc(-c2ccccc2)oc2cccc(O)c12` [5-OH-flavone]: 9.12.
